{
  "sequences": {"note": "Amino acid sequences for entries named in this document (tags omitted). A change or cut given only in a name is not applied to a line headed by its entry.", "UniProt Q9NUW8, whole entry, looked up": "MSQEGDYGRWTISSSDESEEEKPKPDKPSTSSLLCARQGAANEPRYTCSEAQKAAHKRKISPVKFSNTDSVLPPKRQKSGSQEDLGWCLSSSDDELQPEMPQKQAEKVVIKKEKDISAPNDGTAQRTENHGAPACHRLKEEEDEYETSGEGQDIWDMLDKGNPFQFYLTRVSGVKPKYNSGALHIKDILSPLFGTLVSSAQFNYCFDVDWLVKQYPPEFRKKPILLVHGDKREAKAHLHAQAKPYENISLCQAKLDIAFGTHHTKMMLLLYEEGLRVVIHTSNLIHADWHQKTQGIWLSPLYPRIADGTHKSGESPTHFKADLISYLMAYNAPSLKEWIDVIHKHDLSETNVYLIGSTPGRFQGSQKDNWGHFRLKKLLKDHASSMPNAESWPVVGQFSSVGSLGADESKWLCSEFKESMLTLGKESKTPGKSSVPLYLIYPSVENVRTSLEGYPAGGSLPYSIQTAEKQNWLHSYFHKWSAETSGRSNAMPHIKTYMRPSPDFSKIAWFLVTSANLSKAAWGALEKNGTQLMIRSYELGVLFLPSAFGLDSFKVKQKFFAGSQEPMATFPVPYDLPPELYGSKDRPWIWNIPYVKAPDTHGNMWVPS", "UniProt P27695, whole entry, looked up": "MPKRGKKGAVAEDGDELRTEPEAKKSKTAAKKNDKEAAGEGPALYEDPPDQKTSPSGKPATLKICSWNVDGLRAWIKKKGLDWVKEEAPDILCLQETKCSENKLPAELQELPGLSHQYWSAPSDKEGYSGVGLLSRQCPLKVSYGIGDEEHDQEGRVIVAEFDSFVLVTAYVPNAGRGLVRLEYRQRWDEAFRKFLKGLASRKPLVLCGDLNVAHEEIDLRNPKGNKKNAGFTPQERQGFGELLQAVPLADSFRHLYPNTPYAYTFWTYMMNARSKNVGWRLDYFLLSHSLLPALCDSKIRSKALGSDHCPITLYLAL", "UniProt A8B2U2": "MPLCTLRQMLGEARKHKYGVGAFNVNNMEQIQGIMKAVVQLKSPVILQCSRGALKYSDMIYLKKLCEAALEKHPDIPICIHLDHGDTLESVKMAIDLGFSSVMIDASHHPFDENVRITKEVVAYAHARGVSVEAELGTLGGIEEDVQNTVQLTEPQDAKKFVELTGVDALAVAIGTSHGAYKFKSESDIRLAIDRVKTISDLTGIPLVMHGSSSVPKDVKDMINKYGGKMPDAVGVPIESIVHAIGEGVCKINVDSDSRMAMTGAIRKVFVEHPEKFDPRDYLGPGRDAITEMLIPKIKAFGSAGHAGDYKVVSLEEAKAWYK", "UniProt Q9Y253": "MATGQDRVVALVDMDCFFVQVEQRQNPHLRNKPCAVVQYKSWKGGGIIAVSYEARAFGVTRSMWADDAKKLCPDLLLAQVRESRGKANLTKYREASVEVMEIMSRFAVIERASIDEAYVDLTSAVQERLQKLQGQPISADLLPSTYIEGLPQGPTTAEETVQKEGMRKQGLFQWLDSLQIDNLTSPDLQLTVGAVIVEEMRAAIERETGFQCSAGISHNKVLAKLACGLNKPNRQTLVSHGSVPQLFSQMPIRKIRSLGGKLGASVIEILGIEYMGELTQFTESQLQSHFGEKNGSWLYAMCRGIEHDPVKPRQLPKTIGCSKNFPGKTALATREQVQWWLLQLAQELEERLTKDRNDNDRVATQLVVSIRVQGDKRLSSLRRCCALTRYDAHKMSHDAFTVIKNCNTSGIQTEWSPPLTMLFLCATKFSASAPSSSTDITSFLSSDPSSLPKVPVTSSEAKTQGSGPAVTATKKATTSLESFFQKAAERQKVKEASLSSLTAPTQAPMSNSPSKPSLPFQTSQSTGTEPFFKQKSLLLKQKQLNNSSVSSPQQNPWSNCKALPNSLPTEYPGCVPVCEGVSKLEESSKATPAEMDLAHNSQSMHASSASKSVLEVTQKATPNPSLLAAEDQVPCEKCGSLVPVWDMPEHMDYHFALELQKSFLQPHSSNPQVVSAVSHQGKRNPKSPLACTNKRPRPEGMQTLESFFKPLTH", "UniProt P00883": "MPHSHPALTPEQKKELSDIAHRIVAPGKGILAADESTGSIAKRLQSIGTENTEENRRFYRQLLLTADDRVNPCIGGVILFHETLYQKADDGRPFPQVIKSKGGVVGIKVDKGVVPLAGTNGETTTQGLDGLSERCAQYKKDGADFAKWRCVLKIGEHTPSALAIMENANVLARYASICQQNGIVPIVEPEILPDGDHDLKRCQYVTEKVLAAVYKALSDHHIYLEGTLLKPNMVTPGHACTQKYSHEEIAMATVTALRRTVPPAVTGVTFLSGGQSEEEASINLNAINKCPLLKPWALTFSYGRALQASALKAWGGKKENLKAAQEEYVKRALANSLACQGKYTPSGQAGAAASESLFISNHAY"},
  "source": "PubChem BioAssay (NCATS)",
  "key": {"[1]": {"test": "qHTS Assay for Inhibitors of Fructose-1,6-bisphosphate Aldolase from Giardia Lamblia: Giardia lamblia growth inhibition (AID 2785); further: nearly all actives have a fitted effect of over 70% in size; further: potency means the concentration at half of the fitted maximal effect; on activity change, negative = inhibition: on the % scale 0 is the no-effect control and ±100 the full control effect", "settings": "Giardia lamblia trophozoite growth inhibition; activity change, negative = inhibition: at 38.3 µM (top of the series) unless noted", "method_in_brief": "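G. lamblia WB trophozoites (100 cells/well) were grown with compound at 37C for 48 h in modified TYI-S-33 medium, pH 7.0. Growth was measured by ATPlite luminescence after 20 min at room temperature.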"}, "[2]": {"molecular_target": "Rap guanine nucleotide exchange factor 3 (Homo sapiens) (UniProt O95398)", "test": "Confirmatory qHTS for antagonist of cAMP-regulated guanine nucleotide exchange factor 3 (EPAC1) (AID 1645880); further: nearly all actives have a fitted effect of over 55% in size; further: potency means the concentration at half of the fitted maximal effect;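 on activity, negative = inhibition: plate controls were DMSO only for no effect and full effect of the ATA control for full effect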", "settings": "EPAC1 Rap1B-BODIPY-GDP exchange, fluorescence; activity, negative = inhibition: at 115 µM (top of the series)", "method_in_brief": "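Nucleotide exchange uses 100 nM EPAC1, 250 nM RAP1B-BODIPY-GDP and 50 uM GDP, with compounds in a concentration-titration series. After 5 min at room temperature, fluorescence (480 nm ex/540 nm em) is read every 5 min for 30 min. Data are normalized to control ATA and DMSO.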"}, "[3]": {"molecular_target": "Rap guanine nucleotide exchange factor 3 (Homo sapiens) (UniProt O95398)", "test": "Counterscreen qHTS for agonist of cAMP-regulated guanine nucleotide exchange factor 3 (EPAC1) (AID 1645889); further: nearly all actives have a fitted effect of over 40% in size; further: potency means the concentration at half of the fitted maximal effect; on activation: % of control where 0% means no effect", "settings": "EPAC1 Rap1B-BODIPY-GDP exchange, fluorescence; activation: at 154 µM (top of the series) unless noted", "method_in_brief": "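Rap1B–BODIPY-GDP (250 nM) with 50 uM GDP; compounds pin-transferred to 9.74 nM–152 uM final (activator) or from 7.32 nM upwards (inhibitor). Fluorescence Ex/Em 480/540 nm read at 5 and 30 min, then after adding cAMP or buffer, at room temperature.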"}, "[4]": {"molecular_target": "Tyrosyl-DNA phosphodiesterase 1 (Homo sapiens) (UniProt Q9NUW8)", "test": "Confirmation Assay for Inhibitors of Tyrosyl-DNA Phosphodiesterase (TDP1) (AID 489007); further: potency means the concentration at half of the fitted maximal effect; nearly all actives have a fitted effect of over 40% in size", "settings": "recombinant human TDP1 enzymatic activity, dose-response", "method_in_brief": "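Recombinant human Tdp1 (1 nM final), expressed in E. coli, preincubated 15 min with compound. Then 15 nM 5'-biotin/3'-phosphotyrosine-FITC DNA substrate added for 5 min at room temperature. AlphaScreen beads (10 ug/ml) added for 10 min; cleavage gives signal loss.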"}, "[5]": {"molecular_target": "DNA repair nuclease/redox regulator APEX1 (Homo sapiens) (UniProt P27695)", "test": "Confirmation qHTS Assay for Inhibitors of the Human Apurinic/apyrimidinic Endonuclease 1 (APE1) (AID 2572); further: potency means the concentration at half of the fitted maximal effect; nearly all actives have a fitted effect of over 30% in size", "method_in_brief": "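Enzyme preincubated 15 min at room temperature with compound; reaction started with 50 nM final double-stranded THF abasic-site substrate (5'-TAMRA, 3'-BHQ-2). Fluorescence read kinetically (525/598 nm); third-minus-first read difference gives reaction progress.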"}, "[6]": {"test": "AP1 Signaling Pathway (AID 357; active means well fitted curve in either direction with a large enough effect, not every such curve was filed as active; inconclusive means small, poorly fitted or top-dose-only effect, or another doubt; further: on the % scale 0 is the no-effect control and ±100 the full control effect)", "settings": "ME-180 AP-1-bla reporter, EGF-induced, beta-lactamase ratio, 5 h; at 7.69 µM (top of the series) unless noted", "method_in_brief": "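ME-180 cells with beta-lactamase reporter under AP-1 response element, stimulated with EC50 EGF; compounds tested in titration series, 5 h at 37 °C. CCF4 substrate added 2.5 h at room temperature; 460/530 nm emission ratio gave %activity and AC50.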"}, "[7]": {"test": "NFAT Signaling Pathway (AID 444; active means well fitted curve in either direction with a large enough effect, not every such curve was filed as active; inconclusive means small, poorly fitted or top-dose-only effect, or another doubt;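 further: carbachol stimulus at about its EC50 of 1 µM final; on the % scale 0 is the no-effect control and ±100 the full control effect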)", "settings": "Jurkat NFAT-bla M1, carbachol, beta-lactamase ratio, 5 h; at 7.69 µM (top of the series) unless noted", "method_in_brief": "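Jurkat cells with NFAT-driven β-lactamase reporter and co-expressed M1 receptor, stimulated with carbachol (final 1 uM, ~EC50), compound titration, 5 h at 37 °C. CCF4 loaded 1 h at RT; 460/530 nm ratio gave %activity and AC50.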"}, "[8]": {"test": "qHTS Assay for Identification of Small Molecule Agonists for Hypoxia Response Element Signaling Pathway (AID 914; active means well fitted activation curve with a large enough effect in the signal ratio, with a control signal flat, not every such curve was filed as active; inconclusive means small, poorly fitted or top-dose-only effect, or effect the other way, or a change in a side signal; the % refers to the signal ratio; further: potency means the concentration at half of the fitted maximal effect)", "settings": "ME-180 HRE-bla reporter, beta-lactamase ratio, CoCl2, 17 h; activation: stronger effect = higher value", "method_in_brief": "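Reporter activity (beta-lactamase, CCF4 460nm/530nm ratio) in HRE-bla ME-180 cells is recorded after 17 h compound exposure with EC50 CoCl2 at 37 degrees Celsius. AC50 values come from titration data.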"}, "[9]": {"molecular_target": "Fructose-bisphosphate aldolase (Giardia intestinalis (strain ATCC 50803 / WB clone C6)) (UniProt A8B2U2)", "test": "qHTS Assay for Inhibitors of Fructose-1,6-bisphosphate Aldolase from Giardia Lamblia: Primary screen confirmation (AID 2787);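 further: aldolase product measured through coupled diaphorase step turning resazurin into fluorescent resorufin; on the % scale 0 is the no-effect control and ±100 the full control effect; nearly all actives have a fitted effect of over 45% in size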", "method_in_brief": "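Confirmation of primary hits by qHTS up to 57.5 uM final compound. Enzyme at 40 nM with 30 uM ZnCl2, 10 min RT pre-incubation, then substrate/coupling/resorufin-forming detection mix for 20 min before fluorescence read at 525/598 nm.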"}, "[10]": {"molecular_target": "DNA polymerase eta (Homo sapiens) (UniProt Q9Y253)", "test": "qHTS for Inhibitors of Polymerase Eta: Confirmatory Assay for Cherry-picked Compounds (AID 720502); further: potency means the concentration at half of the fitted maximal effect", "settings": "Pol eta primer extension, TAMRA/BHQ fluorescence, 10 min", "method_in_brief": "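Human Pol eta (10 nM) was preincubated with compounds for 15 min at room temperature before adding 50 nM (final) DNA substrate: primer plus TAMRA reporter strand annealed to a BHQ-2-labeled template. Fluorescence (ex 525/em 598 nm) was read at 0 and 10 min.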"}, "[11]": {"test": "qHTS for Inhibitors of Plasmodium falciparum (GB4) proliferation (AID 504315); further: nearly all actives have a fitted effect of over 50% in size", "settings": "P. falciparum GB4 in erythrocytes, SYBR Green DNA, 72 h; at 6.7 µM (top of the series)", "method_in_brief": "(§1)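 Erythrocytes infected with P. falciparum line (0.3% parasitemia, 2.5% hematocrit final) incubated with compounds 72 h at 37 °C, 5% CO2; SYBR Green lysis buffer added, fluorescence read next day. Normalized to 0.29 uM artemisinin and DMSO.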"}, "[12]": {"test": "qHTS for Inhibitors of Plasmodium falciparum (7G8) proliferation (AID 504316)", "method_in_brief": "as §1"}, "[13]": {"test": "qHTS for Inhibitors of Plasmodium falciparum (CP250) proliferation (AID 504320)", "settings": "P. falciparum CP250 in erythrocytes, SYBR Green DNA, 72 h; at 6.7 µM (top of the series)", "method_in_brief": "as §1"}, "[14]": {"molecular_target": "Fructose-bisphosphate aldolase A (Oryctolagus cuniculus) (UniProt P00883)", "test": "qHTS Assay for Inhibitors of Fructose-1,6-bisphosphate Aldolase from Giardia Lamblia: Rabbit FBPA Selectivity (AID 2794)", "method_in_brief": "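Each compound, dosed at up to 57.5 uM final, was first mixed with coupling enzyme reagent for 10 min. Aldolase substrate and the AmpLite Red coupling system then ran 20 min at RT before a single fluorescence read.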"}, "[15]": {"test": "qHTS Assay for Inhibitors of Fructose-1,6-bisphosphate Aldolase from Giardia Lamblia: Mammalian cellular toxicity (AID 2786)", "method_in_brief": "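CHO cells seeded at 250 cells/well with pin-tool-added compound, incubated 48 h at 37 °C, 5% CO2. Viability read as ATP content by ATPlite luminescence after 20 min.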"}},
  "note": "Inconclusive means that the source gave no clear call. Such entries were picked first, then a sample of the others. For some of these results: Potencies of inconclusive entries are doubtful fits and often do not repeat. Active and inactive are the calls of the source. Unless noted, the call rests on the fitted dose curve; in most records, active means well fitted curve in the direction sought with a large enough effect; inconclusive means small, poorly fitted or top-dose-only effect, or another doubt; inactive means no such curve, though single readings can be large; an effect the other way counts as inactive or inconclusive.",
  "data": [
    {"smiles": "N#CCCN(CCC#N)S(=O)(=O)c1ccc(C(=O)Nc2nnc(C3=COCCO3)o2)cc1", "values": [
      {"measurement": "activity change, negative = inhibition", "setting": "[1]", "value": "inconclusive: 34.8% [activator] [at 57.5 µM]"},
      {"measurement": "Potency", "setting": "[2]", "value": "inconclusive: 84.9 µM [inhibitor, partial curve]"},
      {"measurement": "activation", "setting": "[3]", "value": "inconclusive: 24.6% [activator]"}
    ]},
    {"smiles": "N#Cc1c(-c2ccc(F)cc2)cc(-c2ccccc2)nc1SCC(=O)NCC(=O)O", "values": [
      {"measurement": "Potency", "setting": "[1]", "value": "inactive"},
      {"measurement": "Potency", "setting": "[2]", "value": "inconclusive: 84.9 µM [inhibitor, partial curve]"},
      {"measurement": "Potency", "setting": "[3]", "value": "inactive"}
    ]},
    {"smiles": "S=c1[nH]nc(-c2cc(-c3ccccc3)n[nH]2)n1/N=C/c1cccc(Cl)c1", "values": [
      {"measurement": "Potency", "setting": "[4]", "value": "inconclusive: 15.8 µM [inhibitor, full curve, poor fit]"},
      {"measurement": "Potency", "setting": "[2]", "value": "inconclusive: 47.8 µM [inhibitor, partial curve, poor fit]"},
      {"measurement": "Potency", "setting": "[3]", "value": "inconclusive: 15.8 µM [activator, partial curve, poor fit]"}
    ]},
    {"smiles": "O=C(CSc1nnc(-c2cccc(S(=O)(=O)N3CCCC3)c2)n1-c1ccccc1)Nc1ccc(C(=O)O)cc1", "values": [
      {"measurement": "Potency", "setting": "[5]", "value": "inconclusive: 35.5 µM [inhibitor, partial curve, poor fit]"},
      {"measurement": "Potency", "setting": "[4]", "value": "inconclusive: 39.8 µM [inhibitor, single point]"},
      {"measurement": "Potency", "setting": "[2]", "value": "inconclusive: 25.1 µM [inhibitor, full curve]"},
      {"measurement": "activation", "setting": "[3]", "value": "inconclusive: 30.5% [activator] [at 30.8 µM]"}
    ]},
    {"smiles": "CCOc1ccc2nc3cc(N=Nc4ccc(N)nc4N)ccc3c(N)c2c1", "values": [
      {"measurement": "activity change, negative = inhibition", "setting": "[6]", "value": "inactive: 4.95%"},
      {"measurement": "activity change, negative = inhibition", "setting": "[7]", "value": "inconclusive: -60.2% [inhibitor]"},
      {"measurement": "Potency", "setting": "[8]", "value": "inconclusive: 5.01 µM [inhibitor, single point]"},
      {"measurement": "Potency", "setting": "[2]", "value": "inconclusive: 0.708 µM [inhibitor, full curve, poor fit]"},
      {"measurement": "activation", "setting": "[3]", "value": "inconclusive: 35.5% [activator] [at 30.8 µM]"}
    ]},
    {"smiles": "COc1ccc(NC(=S)N(CCCN2CCOCC2)C(C)c2cc3cccc(OC)c3o2)cc1", "note": "(stereo unspecified)", "values": [
      {"measurement": "Potency", "setting": "[1]", "value": "inconclusive: 44.7 µM [inhibitor, single point]"},
      {"measurement": "Potency", "setting": "[9]", "value": "inactive"},
      {"measurement": "Potency", "setting": "[2]", "value": "inconclusive: 42.6 µM [inhibitor, partial curve]"},
      {"measurement": "activation", "setting": "[3]", "value": "inconclusive: 22.6% [activator]"}
    ]},
    {"smiles": "Cc1cc(C)n2nc(C(=O)N/N=C/c3c4ccccc4cc4ccccc34)nc2n1", "values": [
      {"measurement": "Potency", "setting": "[4]", "value": "inconclusive: 158 µM [inhibitor, single point]"},
      {"measurement": "Potency", "setting": "[10]", "value": "inconclusive: 75.7 µM [inhibitor, single point]"},
      {"measurement": "Potency", "setting": "[2]", "value": "inconclusive: 56.2 µM [inhibitor, partial curve, poor fit]"},
      {"measurement": "activation", "setting": "[3]", "value": "inactive: 34.9% [at 30.8 µM]"}
    ]},
    {"smiles": "COC(=O)C1=C(C(=O)OC)[C@@H]2N(Cc3ccccc3)c3ccccc3[C@@]23C[C@@H](C(=O)OC)N=C3N1", "values": [
      {"measurement": "activity change, negative = inhibition", "setting": "[11]", "value": "inactive: 6.21%"},
      {"measurement": "Potency", "setting": "[12]", "value": "inactive"},
      {"measurement": "activity change, negative = inhibition", "setting": "[13]", "value": "inactive: 0.962%"},
      {"measurement": "Potency", "setting": "[2]", "value": "inactive"},
      {"measurement": "Potency", "setting": "[3]", "value": "inconclusive: 0.01 µM [activator, full curve, poor fit]"}
    ]},
    {"smiles": "COc1ccc(CCNC(=O)Cn2nc(C)c3c(C)n(-c4ccc(C)cc4)nc3c2=O)c(OC)c1", "values": [
      {"measurement": "Potency", "setting": "[4]", "value": "inconclusive: 79.4 µM [inhibitor, partial curve]"},
      {"measurement": "Potency", "setting": "[2]", "value": "active: 67.5 µM"},
      {"measurement": "Potency", "setting": "[3]", "value": "inactive"}
    ]},
    {"smiles": "N#Cc1c(N2CCCCC2)nc(N)c2c(N)nc(SCC(=O)O)cc12", "values": [
      {"measurement": "Potency", "setting": "[4]", "value": "inconclusive: 79.4 µM [inhibitor, partial curve]"},
      {"measurement": "Potency", "setting": "[10]", "value": "active: 19 µM"},
      {"measurement": "Potency", "setting": "[2]", "value": "active: 31.6 µM"},
      {"measurement": "Potency", "setting": "[3]", "value": "inconclusive: 10 µM [activator, single point]"}
    ]},
    {"smiles": "CC(=O)NNC(=O)c1sc(=S)n2c1[nH]c(=O)c1sccc12", "values": [
      {"measurement": "Potency", "setting": "[14]", "value": "inconclusive: 126 µM [inhibitor, partial curve]"},
      {"measurement": "Potency", "setting": "[2]", "value": "active: 37.9 µM"},
      {"measurement": "Potency", "setting": "[3]", "value": "inactive"}
    ]},
    {"smiles": "O=C(/C=C/c1ccco1)Nc1nc(-c2ccccn2)cs1", "values": [
      {"measurement": "Potency", "setting": "[1]", "value": "inconclusive: 20 µM [inhibitor, single point]"},
      {"measurement": "Potency", "setting": "[15]", "value": "inconclusive: 63.1 µM [inhibitor, partial curve]"},
      {"measurement": "Potency", "setting": "[9]", "value": "inactive"},
      {"measurement": "Potency", "setting": "[2]", "value": "inconclusive: 37.9 µM [inhibitor, full curve]"},
      {"measurement": "activation", "setting": "[3]", "value": "inconclusive: 32.8% [activator]"}
    ]}
  ]
}
